The source of these data is article PMC8749436.

Sequences of proteins named here, by UniProt entry; tags and fusion partners are left off. A change or cut given only in a name is not applied to a line headed by its entry.
UniProt P09958: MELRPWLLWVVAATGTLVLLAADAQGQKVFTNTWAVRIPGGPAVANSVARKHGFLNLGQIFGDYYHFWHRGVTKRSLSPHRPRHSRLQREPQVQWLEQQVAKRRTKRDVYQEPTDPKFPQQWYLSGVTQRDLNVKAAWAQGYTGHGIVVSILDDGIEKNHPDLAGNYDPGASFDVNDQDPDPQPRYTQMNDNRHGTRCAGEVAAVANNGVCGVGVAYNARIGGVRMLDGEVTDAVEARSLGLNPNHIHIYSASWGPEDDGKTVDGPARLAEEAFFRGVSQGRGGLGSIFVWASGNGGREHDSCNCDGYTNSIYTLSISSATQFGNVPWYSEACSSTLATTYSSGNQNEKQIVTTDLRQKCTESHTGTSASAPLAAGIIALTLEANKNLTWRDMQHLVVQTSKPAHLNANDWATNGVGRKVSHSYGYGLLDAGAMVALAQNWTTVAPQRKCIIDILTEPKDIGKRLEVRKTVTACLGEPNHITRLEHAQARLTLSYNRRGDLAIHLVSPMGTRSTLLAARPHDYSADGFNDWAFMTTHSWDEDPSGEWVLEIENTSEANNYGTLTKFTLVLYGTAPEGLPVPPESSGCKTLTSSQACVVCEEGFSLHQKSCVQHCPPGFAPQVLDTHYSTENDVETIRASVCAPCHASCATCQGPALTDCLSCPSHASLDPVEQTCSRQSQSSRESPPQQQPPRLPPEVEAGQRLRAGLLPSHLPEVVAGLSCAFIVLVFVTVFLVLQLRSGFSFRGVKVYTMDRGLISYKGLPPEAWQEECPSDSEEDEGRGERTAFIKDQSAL

Test [1] has as its target T1, α-SNAP-Flag (human) (UniProt P54920).
T1 sequence: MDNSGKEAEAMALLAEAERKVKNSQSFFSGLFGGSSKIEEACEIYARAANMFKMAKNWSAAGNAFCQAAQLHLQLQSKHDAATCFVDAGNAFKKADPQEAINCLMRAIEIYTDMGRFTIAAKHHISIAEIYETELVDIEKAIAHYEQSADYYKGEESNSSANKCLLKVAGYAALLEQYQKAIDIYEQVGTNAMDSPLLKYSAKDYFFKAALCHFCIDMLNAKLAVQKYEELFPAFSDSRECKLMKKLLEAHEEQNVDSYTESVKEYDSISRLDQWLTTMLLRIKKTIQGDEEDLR
The test can be described thus: co-IP.

Test [2] addresses furin-VN (human) (UniProt P09958). The test can be described thus: split reporter; BiFC (split Venus) of α-SNAP-VC and furin-VN cotransfected into HEK293 cells; fixed at 24 h; confocal microscopy with GOLGA5 or calnexin staining.

These are yes or no findings as the source states them, for the method shown. Binding seen in cells or lysates may run through a third protein. Binding calls can cover weak binding; strength is not graded here. For some assays here: Where a sequence is shown, tags or fusion partners need not be part of it.

With “furin-hemagglutinin (from UniProt P09958) (enzyme)”, in test [1], the binding result is reported as “binds”.

B1: α-SNAP-VC (protein, UniProt P54920 1-295)
chain: T1 sequence
Regarding B1, the binding result in test [2] is “binds”.
